{"sequences": {"note": "Chains of the proteins cited; added tags and fusions are not shown. Lines headed by an entry give the natural chain unless they say otherwise; changes in a name come on top.", "UniProt P20594": "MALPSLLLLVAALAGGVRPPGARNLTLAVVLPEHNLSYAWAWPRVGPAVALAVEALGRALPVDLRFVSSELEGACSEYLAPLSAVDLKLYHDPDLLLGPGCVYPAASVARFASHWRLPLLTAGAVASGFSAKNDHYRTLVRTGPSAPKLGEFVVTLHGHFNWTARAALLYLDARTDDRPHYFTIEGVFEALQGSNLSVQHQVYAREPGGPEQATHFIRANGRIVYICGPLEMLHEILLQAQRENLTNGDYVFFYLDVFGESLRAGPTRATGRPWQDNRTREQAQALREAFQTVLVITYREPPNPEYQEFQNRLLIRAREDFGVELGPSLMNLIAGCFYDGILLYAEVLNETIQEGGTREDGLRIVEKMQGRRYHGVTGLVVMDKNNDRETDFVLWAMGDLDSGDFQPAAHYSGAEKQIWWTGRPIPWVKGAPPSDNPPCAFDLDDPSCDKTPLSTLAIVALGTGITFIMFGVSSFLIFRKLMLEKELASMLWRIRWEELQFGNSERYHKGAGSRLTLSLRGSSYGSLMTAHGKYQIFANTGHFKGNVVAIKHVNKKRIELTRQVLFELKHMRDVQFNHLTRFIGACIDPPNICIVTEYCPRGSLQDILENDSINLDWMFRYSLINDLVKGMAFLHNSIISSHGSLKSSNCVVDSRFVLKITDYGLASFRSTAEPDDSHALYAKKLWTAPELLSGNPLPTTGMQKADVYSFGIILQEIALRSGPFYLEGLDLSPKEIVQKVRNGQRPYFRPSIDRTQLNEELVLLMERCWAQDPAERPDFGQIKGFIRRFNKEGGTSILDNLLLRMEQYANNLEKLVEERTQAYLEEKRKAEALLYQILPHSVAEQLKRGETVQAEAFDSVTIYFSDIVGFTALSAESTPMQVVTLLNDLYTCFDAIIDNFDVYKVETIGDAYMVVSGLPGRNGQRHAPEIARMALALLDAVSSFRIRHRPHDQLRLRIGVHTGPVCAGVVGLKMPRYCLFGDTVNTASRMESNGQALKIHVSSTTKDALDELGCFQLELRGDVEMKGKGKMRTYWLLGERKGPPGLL"}, "source": "PubChem BioAssay AID1347046", "about": "(National Center for Advancing Translational Sciences (NCATS), 2019)", "note": "About 940 (67%) of roughly 1,400 compounds were called active. So high a share suggests a set chosen from earlier hits. This list was built around the results that the source calls inconclusive (neither active nor inactive); the mix of calls is not that of the screen. Calls follow the shape of the full dose curve. Potencies of inconclusive entries are doubtful fits and often do not repeat. Potency is read from the fitted curve at half-maximal effect.", "data": [{"target": "Atrial natriuretic peptide receptor 2 (Homo sapiens) (UniProt P20594)", "test": "Natriuretic polypeptide receptor (hNpr2) antagonism - Subtype selectivity assay; also: nearly all actives have a fitted effect of over 70% in size", "conditions": "HEK293 hNpr2 GloSensor cGMP luminescence, CNP-stimulated; series mostly up to 57.6 µM; activity change, negative = inhibition: at the top concentration", "summary_of_the_method": "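HEK293 hNpr2 cGMP-sensor cells; 2% GloSensor reagent 2 h RT; compound 30 min; baseline read; 1 nM hNppC agonist 20 min RT; luminescence read. Compounds tested as 1:3 titrations.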", "values": [{"smiles": "COc1ccc(-c2cnc3[nH]cc(CC(=O)Nc4ccc(OC)nc4)c3c2)cc1", "Potency": "inconclusive: 35.3 µM [inhibitor, partial curve]"}, {"smiles": "COc1ccccc1NC(=O)Cn1c(N2CCc3ccccc3C2)nc(C)cc1=O", "activity change, negative = inhibition": "inactive: -14%"}, {"smiles": "CCCCCN(CCC(=O)NCc1ccc2c(c1)OCO2)C(=O)c1cc(C)oc1C", "Potency": "inconclusive: 15.3 µM [inhibitor, partial curve]"}, {"smiles": "CC1=C(C(=O)Nc2ccccc2)C(c2cccc(C)c2)N2C(CC(=O)NC3CC3)=CSC2=N1", "note": "(stereo unspecified)", "Potency": "inconclusive: 27.3 µM [inhibitor, partial curve]"}, {"smiles": "O=C1COc2ccc(-c3ccoc3)nc2CN1Cc1ccc(C(F)(F)F)cc1", "Potency": "active: 35.3 µM"}, {"smiles": "O=C(c1ccc(Cl)cc1)N1CCN(c2cc(-c3ccc(Cl)cc3)[nH]n2)CC1", "Potency": "active: 21.7 µM"}, {"smiles": "O=C(Cc1ccc(F)cc1)N1CCC(Cc2nc(-c3ccc(F)cc3)no2)CC1", "Potency": "active: 13.7 µM"}, {"smiles": "Cc1nn2c(c1-c1ccccc1C(C)C)N(Cc1cccc(C(=O)O)c1)CCC2", "activity change, negative = inhibition": "inactive: -22.4% [at 86.2 µM]"}, {"smiles": "CC1=C(C(=O)OC(C)C)C(c2ccc(C)cc2)CC(=O)N1Cc1cccc(C#N)c1", "note": "(stereo unspecified)", "Potency": "inconclusive: 12.2 µM [inhibitor, partial curve]"}, {"smiles": "Cc1ncnc(N2CCC(CO)(Cc3ccccc3C(F)(F)F)CC2)c1C", "Potency": "active: 24.3 µM"}, {"smiles": "COc1ccc(OC)c(NC(=O)Cn2c(N3CCc4ccccc4C3)nc(C)cc2=O)c1", "Potency": "inconclusive: 19.3 µM [inhibitor, partial curve]"}, {"smiles": "N#Cc1cccc(CN2CCOC[C@H]2c2ncc(-c3ccc(Cl)s3)[nH]2)c1", "Potency": "inconclusive: 49.8 µM [inhibitor, single point]"}, {"smiles": "O=c1n(-c2ccncc2)nc2n1CCN(Cc1ccc(C(F)(F)F)cc1)C2", "Potency": "active: 17.2 µM"}, {"smiles": "Cc1cccc(C(=O)N2CCC3(CC2)CC(N(Cc2ccc(F)cc2)C2CC2)CCO3)c1", "note": "(stereo unspecified)", "Potency": "inconclusive: 38.5 µM [inhibitor, single point]"}, {"smiles": "Cc1nn2c(c1-c1ccccc1OCc1ccccc1)N(C(=O)COc1ccccc1)CCC2", "Potency": "active: 12.2 µM"}, {"smiles": "OCC1CN(c2ccncn2)CC12CCN(Cc1cc(F)c(F)c(F)c1)CC2", "note": "(stereo unspecified)", "activity change, negative = inhibition": "inactive: -27.8%"}, {"smiles": "CC(=O)N1CCC(NC[C@H]2O[C@H](Cc3cc(-c4cccc(O)c4)on3)CC[C@@H]2O)CC1", "Potency": "inconclusive: 28 µM [inhibitor, partial curve]"}, {"smiles": "Cc1ccc(C)c(C(=O)N2CCC3(CC2)N=C(c2ccc(Cl)cc2)NO3)c1", "Potency": "inconclusive: 43.2 µM [inhibitor, single point]"}, {"smiles": "CCCCNC(=O)c1cccc(-c2cc(N3CCN(C)CC3)nc(N)n2)c1", "activity change, negative = inhibition": "inactive: -28%"}, {"smiles": "Cc1noc(C)c1[S+](=O)([O-])N1CCc2nc(C(C)C)nc(-c3ccc(O)cc3)c2C1", "Potency": "inconclusive: 24.3 µM [inhibitor, partial curve, poor fit]"}, {"smiles": "CC(=O)N1CCc2cc(S(=O)(=O)NCCCC(=O)N3CCC(CCOc4ccccc4)C3)ccc21", "note": "(stereo unspecified)", "Potency": "active: 6.11 µM"}, {"smiles": "COC(=O)c1cccc(NC(=S)N[C@@H]2C=C[C@@H](c3c(C)nn(-c4ccccc4[N+](=O)[O-])c3C)C2)c1", "Potency": "inconclusive: 21.7 µM [inhibitor, partial curve]"}, {"smiles": "OC(c1cccc(C(F)(F)F)c1)c1nc(Nc2ccc3c(c2)OCO3)n[nH]1", "note": "(stereo unspecified)", "Potency": "inconclusive: 39.6 µM [inhibitor, partial curve, poor fit]"}, {"smiles": "O=C(c1ccc2[nH]ccc2c1)N1CCCN(c2cc(-c3ccc(Br)cc3)[nH]n2)CC1", "Potency": "active: 24.3 µM"}, {"smiles": "O=C(CCC1CCN(C(=O)c2ccoc2)CC1)N1CCC(Cc2ccccc2)CC1", "activity change, negative = inhibition": "inactive: -27.3%"}, {"smiles": "CCOc1ccccc1C(=O)N1CCc2[nH]nc(-c3ccc(F)c(F)c3)c2C1", "Potency": "inconclusive: 24.3 µM [inhibitor, partial curve]"}, {"smiles": "Fc1ccc(CNC[C@H]2Cn3c(-c4ccc5c(c4)OCCO5)cnc3CO2)cc1", "Potency": "inconclusive: 31.4 µM [inhibitor, partial curve]"}, {"smiles": "CCNc1cc(N2CCC(CCC(=O)N3CCCN(c4ncccn4)CC3)CC2)ncn1", "Potency": "inconclusive: 21.7 µM [inhibitor, partial curve]"}, {"smiles": "COc1ccccc1Nc1ncc2c(n1)CN(C(=O)c1ccccc1)CCN2", "Potency": "inconclusive: 39.6 µM [inhibitor, partial curve]"}, {"smiles": "COC(=O)c1cccc(NC(=S)N[C@@H]2C=C[C@@H](c3c(C)nn(-c4ccc(F)cc4)c3C)C2)c1", "Potency": "inconclusive: 19.3 µM [inhibitor, partial curve]"}, {"smiles": "COc1cccc(CN2CCC(Oc3ccccc3-c3nc(-c4ccncc4)no3)C2)c1", "note": "(stereo unspecified)", "Potency": "inconclusive: 15.3 µM [inhibitor, partial curve, poor fit]"}, {"smiles": "COc1ccc(CCC(=O)N2CCC[C@H]2c2nc(-c3ccccc3Cl)no2)cc1", "Potency": "inconclusive: 30.6 µM [inhibitor, single point]"}, {"smiles": "COc1ccc(C2Cn3nnc(C(=O)N4CCN(C(=O)c5cc(C)ccc5C)CC4)c3CO2)cc1", "note": "(stereo unspecified)", "activity change, negative = inhibition": "inactive: -22.8%"}, {"smiles": "O=C1NC(=NC2CCCC2)C2(CCCN(Cc3cccnc3)C2)N1c1cc(F)cc(F)c1", "note": "(stereo unspecified)", "activity change, negative = inhibition": "inactive: -0.146%"}, {"smiles": "O=C(Nc1cccc(Cl)c1)C1CCN(c2cc(C(F)(F)F)ncn2)CC1", "Potency": "inconclusive: 27.3 µM [inhibitor, single point]"}, {"smiles": "O=C(c1cccc(Br)c1)N1CCN(c2cc(-c3cccs3)[nH]n2)CC1", "Potency": "inconclusive: 21.7 µM [inhibitor, partial curve]"}, {"smiles": "COc1ccccc1OCCNC(=O)C1CCN(c2cc(C(F)(F)F)nc(C)n2)CC1", "activity change, negative = inhibition": "inactive: -7.03%"}, {"smiles": "O=C(Nc1ccc(F)c(F)c1)c1cc2n(n1)CC(c1ccc(Br)cc1)OC2", "note": "(stereo unspecified)", "Potency": "inconclusive: 24.3 µM [inhibitor, partial curve]"}, {"smiles": "Cc1nn2c(c1-c1ccccc1OCc1ccccc1)N(C(=O)Cc1ccccn1)CCC2", "Potency": "active: 12.5 µM"}, {"smiles": "Cc1ccc(S(=O)(=O)N2CCCC(CCC(=O)N3CCCCC3)C2)cc1", "note": "(stereo unspecified)", "Potency": "inconclusive: 24.3 µM [inhibitor, partial curve]"}, {"smiles": "CC1=C(C(=O)OC(C)C)C(c2ccccc2Cl)N2C(CC(=O)N3CCOCC3)=CSC2=N1", "note": "(stereo unspecified)", "Potency": "inconclusive: 27.3 µM [inhibitor, partial curve]"}]}]}
